In this data set the test system is ArnR (Corynebacterium glutamicum). Kind of data set: EMSA. The following applies: 50 nM DNA. Background: In EMSA bound probe runs differently from free probe, usually more slowly.

Results on one sequence are retold here after article doi:10.64898/2025.12.26.696629.

Construct, isoform or probe ends are uncertain for at least one entry. At least one verdict rests on a figure or table, not on a statement of the authors.

Take “GTTGCCTAATTAAATACGGAAAACCCCGTTGAAAAACATGCGG (double strand) [PnarK 43-bp]”: the binding result is “binds”.
